Inconclusive results, whose numbers are uncertain, are shown with a selection of clear calls. Calls of active or inactive are those of the source.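 Rule for the calls: active = signal loss with fitted half-maximal concentration at or below twice the top valid tested dose in every test run; inconclusive = runs disagree, flat 30 to 70% signal loss, or poor fit; inactive = all runs flat, opposite direction, or potency beyond limit.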
Test: general mammalian cell viability loss – inhibitor set, cherry-pick, set 2, cytotoxicity control for miR-122 modulator project, dose response (AID 720697);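 note: 0% = median of neutral control wells and -100% = MG132 positive control wells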
Conditions: HEK293T viability, CellTiter-Glo luminescence, 48 h; at 26 µM (top of the series) unless noted
In the case of `C[C@H](CO)N1C[C@H](C)[C@H](CN(C)CC2CCCCC2)OCCCC[C@H](C)Oc2ccc(NC(=O)Nc3cccc4ccccc34)cc2C1=O`, the activity change, negative = cytotoxicity is reported as inactive: -33%.
For `C[C@@H]1CN([C@H](C)CO)S(=O)(=O)c2ccc(C#Cc3ccncc3)cc2O[C@@H]1CN(C)C(=O)Nc1ccc2c(c1)OCO2`, the activity change, negative = cytotoxicity was inconclusive: -63.4%.
For `COCC(=O)N1[C@@H](CO)[C@@H]2c3ccccc3N(C(=O)c3cccnc3)C[C@@H]21`, the activity change, negative = cytotoxicity was inactive: 42.3%.
In the case of `C[C@H](CO)N1C[C@H](C)[C@H](CN(C)C(=O)Nc2ccc3c(c2)OCO3)Oc2ncc(-c3cccc(C(F)(F)F)c3)cc2C1=O`, the activity change, negative = cytotoxicity is reported as inconclusive: -91%.
For `CCCNC(=O)C[C@H]1CC[C@H]2[C@H](COc3ccc(NC(=O)c4ccc(C(F)(F)F)cc4)cc3C(=O)N2C)O1`, the activity change, negative = cytotoxicity was inconclusive: -41% [at 23.5 µM].
For `CCNC(=O)C[C@H]1CC[C@H]2[C@H](COc3ccc(NC(=O)Nc4cccc(OC)c4)cc3C(=O)N2C)O1`, the activity change, negative = cytotoxicity was inconclusive: -38.2% [at 23.5 µM].
For `COCC(=O)N1[C@H](CO)[C@H]2c3ccccc3N(C(=O)c3ccccc3F)C[C@H]21`, the activity change, negative = cytotoxicity was inconclusive: -40% [at 23.5 µM].
For `CC(C)(C)c1ccc(S(=O)(=O)NCCc2ccncc2)cc1`, the activity change, negative = cytotoxicity was inactive: 29.4%.
In the case of `C[C@@H]1CN([C@@H](C)CO)C(=O)Cc2cc(NC(=O)C3CCCCC3)ccc2O[C@H]1CN(C)Cc1ccc(-c2ccccc2)cc1`, the activity change, negative = cytotoxicity is reported as inactive: -20.5% [at 23.5 µM].
For `CNC(=O)C[C@@H]1CC[C@@H]2[C@H](COc3ccc(NC(=O)Nc4cccc(C)c4)cc3C(=O)N2C)O1`, the activity change, negative = cytotoxicity was inconclusive: -47.8%.
For `CNC(=O)C[C@H]1CC[C@H]2[C@@H](COc3ccc(NC(=O)C(C)C)cc3C(=O)N2C)O1`, the activity change, negative = cytotoxicity was inactive: 58.9%.
In the case of `COCC(=O)N(C)C[C@H]1Oc2cc(-c3ccccc3F)ccc2S(=O)(=O)N([C@H](C)CO)C[C@H]1C`, the activity change, negative = cytotoxicity is reported as inactive: 69.5%.
With `C[C@@H]1CN([C@H](C)CO)S(=O)(=O)c2ccc(C#Cc3ccccc3F)cc2O[C@@H]1CN(C)C(=O)c1ccc2c(c1)OCO2` the activity change, negative = cytotoxicity was inconclusive: -72.4%.
For `COc1cccc(C(=O)Nc2ccc3c(c2)C(=O)N(C)[C@@H]2CC[C@@H](CC(=O)NCc4ccc(F)cc4)O[C@@H]2CO3)c1`, the activity change, negative = cytotoxicity was inactive: 71.3%.
With `CCNC(=O)C[C@@H]1CC[C@H]2[C@@H](COc3ccc(NC(=O)Nc4ccc(F)cc4)cc3C(=O)N2C)O1` the activity change, negative = cytotoxicity was inactive: 45.4%.
For `CO[C@H]1CN(C)C(=O)c2cc(NC(=O)C3CC3)ccc2OC[C@H](C)N(CCc2ccccc2)C[C@H]1C`, the activity change, negative = cytotoxicity was inconclusive: -51.6%.
For `CN1C(=O)c2cc(NS(C)(=O)=O)ccc2OC[C@@H]2O[C@H](CC(=O)O)CC[C@H]21`, the activity change, negative = cytotoxicity was inconclusive: -27.2% [at 23.5 µM].
In the case of `C/C=C/c1ccc([C@H]2[C@H](CO)N[C@H]2CN(CC(C)C)C(=O)c2ccccn2)cc1`, the activity change, negative = cytotoxicity is reported as inconclusive: -49%.
For `COc1ccc(C#Cc2ccc([C@@H]3[C@@H](CO)N4CCCCN(C(=O)Nc5ccccc5)C[C@H]34)cc2)cc1`, the activity change, negative = cytotoxicity was inconclusive: -154% [at 23.5 µM].
For `COc1ccc(CN2CCc3c([nH]c4ccccc34)C2)c(OC)c1C`, the activity change, negative = cytotoxicity was inconclusive: -37.9%.
For `O=C(NC[C@@H]1[C@@H](c2ccccc2)[C@H](CO)N1C(=O)C1CCC1)NC1CCCC1`, the activity change, negative = cytotoxicity was inconclusive: 31.4% [at 23.5 µM].
For `C/C=C/c1ccc([C@@H]2[C@@H](CO)N(C(=O)C3CC3)[C@H]2CN(C)C(=O)CC2CC2)cc1`, the activity change, negative = cytotoxicity was inconclusive: -43.5%.
For `COCC(=O)Nc1ccc2c(c1)C(=O)N(C)[C@@H]1CC[C@@H](CC(=O)NCCCN(C)C)O[C@@H]1CO2`, the activity change, negative = cytotoxicity was inconclusive: -110%.
In the case of `COCC(=O)Nc1ccc2c(c1)C(=O)N(C)[C@@H]1CC[C@H](CC(=O)NCCCN(C)C)O[C@H]1CO2`, the activity change, negative = cytotoxicity is reported as inconclusive: -42.9%.
In the case of `CN(C[C@H]1[C@H](c2ccccc2)[C@@H](CO)N1CC1CC1)C(=O)c1cccc(F)c1`, the activity change, negative = cytotoxicity is reported as inactive: 87.6% [at 23.5 µM].
For `C[C@H](CO)N1C[C@H](C)[C@@H](CN(C)CC2CCCCC2)Oc2c(NS(=O)(=O)c3cccs3)cccc2C1=O`, the activity change, negative = cytotoxicity was inconclusive: -34.4%.
For `O=C(NC[C@H]1[C@H](c2ccccc2)[C@@H](CO)N1Cc1ccccn1)C1CC1`, the activity change, negative = cytotoxicity was inconclusive: -29.3% [at 23.5 µM].
With `CNC(=O)C[C@@H]1CC[C@H]2[C@@H](COc3ccc(NC(=O)NC(C)C)cc3C(=O)N2C)O1` the activity change, negative = cytotoxicity was inconclusive: -41.6% [at 23.5 µM].
